PubChem BioAssay AID1259292 – Sanger Institute – 2017
Screen: 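Kinase genes whose knock-down synergises with trametinib, cetuximab or BYL719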 (follow-up of hits). Cells: human colorectal cancer RCM1 cells. Reagent: single siRNA against human genes. Challenge: anchor drugs BYL719 at 1 µM, cetuximab at 5 µg/ml or trametinib at 10 nM, or DMSO vehicle; exposure time not given. Read-out: 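Replicate-averaged viability as a fraction of non-targeting pool 2 wells, under DMSO, BYL719 1 µM, cetuximab 5 µg/ml or trametinib 10 nM (time unstated), plus a synergy score for each drug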. Direction: synergy score with trametinib and synergy score with cetuximab and synergy score with BYL719: higher = stronger combined killing beyond expected (synthetic lethal); viability with siRNA alone (DMSO) and viability with siRNA plus trametinib: higher = more viable cells. Call rule: 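a gene counts as synergistic when its synergy score is over 0.10 with at least one of the three drugs; otherwise no synergy with any drug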. Meaning of the calls: active = synergy with at least one anchor drug; inactive = no synergy with any anchor drug.
Shown is an unselected part of 160 deposited reagents. 64 of all reagents (40%) were called active. 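Four separate siRNAs per gene; a call can rest on any single drug, so look at each drug's score.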 Reagents against one gene are numbered here. No viability above 1 is reported: the scale is capped. Not stated in the record: the amount of reagent, the time to read-out.

The opening 6 entries as a preview:
no.	target gene	reagent	synergy score with trametinib	synergy score with cetuximab	synergy score with BYL719	viability with siRNA alone (DMSO) (fraction of control)	viability with siRNA plus trametinib (fraction of control)	Call
1	IRAK1 (GeneID 3654)	1	0.132	-0.0876	-0.0784	0.899	0.421	active
2	IRAK1 (GeneID 3654)	2	-0.0692	-0.029	-0.0462	1	0.684	inactive
3	IRAK1 (GeneID 3654)	3	-0.133	-0.0084	-0.0325	0.96	0.724	inactive
4	IRAK1 (GeneID 3654)	4	-0.144	-0.0686	-0.017	1	0.759	inactive
5	PIK3CA (GeneID 5290)	1	0.0244	0.211	0.0574	0.839	0.491	active
6	PIK3CA (GeneID 5290)	2	0.0423	-0.0415	-0.0883	0.852	0.482	inactive

Results, from the first entry:
no.	target gene	reagent	synergy score with trametinib	synergy score with cetuximab	synergy score with BYL719	viability with siRNA alone (DMSO) (fraction of control)	viability with siRNA plus trametinib (fraction of control)	Call
1	IRAK1 (GeneID 3654)	1	0.132	-0.0876	-0.0784	0.899	0.421	active
2	IRAK1 (GeneID 3654)	2	-0.0692	-0.029	-0.0462	1	0.684	inactive
3	IRAK1 (GeneID 3654)	3	-0.133	-0.0084	-0.0325	0.96	0.724	inactive
4	IRAK1 (GeneID 3654)	4	-0.144	-0.0686	-0.017	1	0.759	inactive
5	PIK3CA (GeneID 5290)	1	0.0244	0.211	0.0574	0.839	0.491	active
6	PIK3CA (GeneID 5290)	2	0.0423	-0.0415	-0.0883	0.852	0.482	inactive
7	PIK3CA (GeneID 5290)	3	-0.00505	0.0442	-0.00896	0.873	0.542	inactive
8	PIK3CA (GeneID 5290)	4	-0.0206	-0.0686	-0.162	1	0.635	inactive
9	MPP3 (GeneID 4356)	1	0.0648	-0.0477	0.00582	1	0.55	inactive
10	MPP3 (GeneID 4356)	2	0.0151	-0.0686	-0.103	1	0.6	inactive
11	MPP3 (GeneID 4356)	3	0.104	-0.0807	-0.0515	0.317	0.0907	active
12	MPP3 (GeneID 4356)	4	0.223	0.239	0.0562	0.645	0.174	active
13	COASY (GeneID 80347)	1	-0.181	0.0579	-0.0762	0.646	0.579	inactive
14	COASY (GeneID 80347)	2	-0.123	-0.061	-0.0258	0.88	0.664	inactive
15	COASY (GeneID 80347)	3	0.0881	0.0561	-0.195	0.524	0.234	inactive
16	COASY (GeneID 80347)	4	-0.0866	-0.0207	-0.251	0.397	0.331	inactive
17	PAK1 (GeneID 5058)	1	0.119	-0.0908	-0.0244	0.782	0.361	active
18	PAK1 (GeneID 5058)	2	0.153	0.13	0.0974	0.697	0.275	active
19	PAK1 (GeneID 5058)	3	0.188	-0.0544	0.0435	0.841	0.329	active
20	PAK1 (GeneID 5058)	4	-0.115	-0.0725	-0.13	0.982	0.719	inactive
21	AK2 (GeneID 204)	1	0.112	0.0675	0.0245	0.98	0.491	active
22	AK2 (GeneID 204)	2	0.264	-0.0247	-0.0665	0.836	0.25	active
23	AK2 (GeneID 204)	3	-0.0779	-0.0686	-0.162	1	0.693	inactive
24	AK2 (GeneID 204)	4	0.325	-0.0596	0.0428	0.944	0.255	active
25	STK36 (GeneID 27148)	1	0.14	0.0244	-0.139	0.724	0.305	active
26	STK36 (GeneID 27148)	2	-0.042	-0.0686	-0.162	1	0.657	inactive
27	STK36 (GeneID 27148)	3	-0.0335	0.0247	-0.149	0.826	0.541	inactive
28	STK36 (GeneID 27148)	4	-0.138	-0.0879	-0.0398	0.979	0.74	inactive
29	GUCY2D (GeneID 3000)	1	-0.109	-0.0658	-0.162	1	0.724	inactive
30	GUCY2D (GeneID 3000)	2	0.175	-0.0312	-0.00879	0.9	0.379	active
31	GUCY2D (GeneID 3000)	3	-0.0538	-0.106	-0.215	0.788	0.538	inactive
32	GUCY2D (GeneID 3000)	4	-0.0575	-0.0686	-0.162	1	0.672	inactive
33	SYNCRIP (GeneID 10492)	1	-0.0195	0.0848	-0.123	0.51	0.333	inactive
34	SYNCRIP (GeneID 10492)	2	-0.017	-0.0686	-0.124	1	0.632	inactive
35	SYNCRIP (GeneID 10492)	3	0.0181	-0.185	-0.026	0.587	0.343	inactive
36	SYNCRIP (GeneID 10492)	4	-0.0999	-0.0686	-0.162	1	0.715	inactive
37	CHD4 (GeneID 1108)	1	-0.0514	0.00847	-0.275	0.547	0.388	inactive
38	CHD4 (GeneID 1108)	2	0.155	0.0264	-0.0182	0.517	0.163	active
39	CHD4 (GeneID 1108)	3	0.126	0.0292	-0.0553	0.79	0.36	active
40	CHD4 (GeneID 1108)	4	-0.0769	-0.048	-0.157	0.963	0.669	inactive
41	MAPKAPK2 (GeneID 9261)	1	-0.193	-0.0686	-0.162	1	0.808	inactive
42	MAPKAPK2 (GeneID 9261)	2	0.0201	-0.0686	-0.132	1	0.595	inactive
43	MAPKAPK2 (GeneID 9261)	3	0.0332	-0.0541	0.112	1	0.582	active
44	MAPKAPK2 (GeneID 9261)	4	-0.0357	0.0108	-0.0966	0.917	0.6	inactive
45	MAP3K8 (GeneID 1326)	1	-0.0877	-0.0686	-0.162	1	0.703	inactive
46	MAP3K8 (GeneID 1326)	2	-0.0811	0.115	0.0606	0.848	0.602	active
47	MAP3K8 (GeneID 1326)	3	0.0934	0.176	0.0993	0.942	0.486	active
48	MAP3K8 (GeneID 1326)	4	0.214	0.117	0.0276	0.862	0.316	active
49	PRAG1 (GeneID 157285)	1	0.208	0.175	0.164	1	0.407	active
50	PRAG1 (GeneID 157285)	2	0.182	-0.0922	-0.223	0.905	0.375	active
51	PRAG1 (GeneID 157285)	3	-0.272	-0.0686	-0.15	1	0.887	inactive
52	PRAG1 (GeneID 157285)	4	-0.249	-0.0686	0.0999	1	0.864	inactive
53	MARK3 (GeneID 4140)	1	-0.17	-0.0307	-0.212	0.901	0.725	inactive
54	MARK3 (GeneID 4140)	2	0.0369	-0.0686	-0.104	1	0.578	inactive
55	MARK3 (GeneID 4140)	3	0.0773	0.103	-0.0323	1	0.538	active
56	MARK3 (GeneID 4140)	4	0.263	-0.0318	-0.199	0.804	0.231	active
57	HSPB8 (GeneID 26353)	1	0.306	-0.0686	-0.162	1	0.309	active
58	HSPB8 (GeneID 26353)	2	-0.347	-0.0686	-0.162	1	0.962	inactive
59	HSPB8 (GeneID 26353)	3	-0.0364	-0.0875	-0.213	0.86	0.565	inactive
60	HSPB8 (GeneID 26353)	4	0.1	0.132	-0.147	0.792	0.386	active
61	ACVR1 (GeneID 90)	1	-0.0759	-0.0686	-0.162	1	0.691	inactive
62	ACVR1 (GeneID 90)	2	0.0829	-0.0338	-0.059	0.994	0.528	inactive
63	ACVR1 (GeneID 90)	3	0.1	-0.0686	-0.162	1	0.515	inactive
64	ACVR1 (GeneID 90)	4	0.158	-0.0602	-0.162	1	0.457	active
